Measurements reported in PubChem BioAssay AID624150 (Cancer Research UK Cambridge, 2012).
Assay: 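Which chromatin factors steer differentiation of epidermal stem cells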 (primary screen). Cells: primary human epidermal keratinocytes. Reagent: siRNA pool against human genes, 1-2 µM siRNA in 20 µl nucleofection. Time to read-out: 72 h after transfection plus 48 h differentiation (about 5 days). Conditions: five arms for 48 h: vehicle, AG1478 10 µM, BMP2/7 200 ng/ml, both together, or 10% serum. Measurement: 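Per-cell amount of a differentiation marker read by infrared scanning of the plate, given as a z-score within each plate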. Direction: z-score, vehicle: higher = more differentiation marker per cell.
Shown is one part, drawn at random, of 331 deposited reagents. 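Each arm had three replicate z-scores, but only the first replicate is printed; higher values mean more differentiation marker per cell.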 Not all columns of the deposit are shown.

gene knocked down | z-score, vehicle
PRMT2 (protein arginine methyltransferase 2) | 1.46
RAD54L (RAD54 like) | -0.318
JARID2 (jumonji and AT-rich interaction domain containing 2) | -0.313
CBX7 (chromobox 7) | -0.735
SFMBT1 (Scm like with four mbt domains 1) | 0.12
SP140 (SP140 nuclear body protein) | -0.233
ATF7IP2 (activating transcription factor 7 interacting protein 2) | 0.412
DPF3 (double PHD fingers 3) | -0.207
DNMT1 (DNA methyltransferase 1) | -0.312
ING3 (inhibitor of growth family member 3) | 0.399
ATF7IP (activating transcription factor 7 interacting protein) | -1.08
BRPF1 (bromodomain and PHD finger containing 1) | 0.78
MRM3 (mitochondrial rRNA methyltransferase 3) | 0.292
HDAC11 (histone deacetylase 11) | 1.19
SMARCA4 | -0.23
PHF2 (PHD finger protein 2) | -0.619
MLLT6 (MLLT6, PHD finger containing) | 1.15
PHF24 (PHD finger protein 24) | 0.803
DHX9 (DExH-box helicase 9) | -0.367
SPEN (spen family transcriptional repressor) | -1.43
SETD2 (SET domain containing 2, histone lysine methyltransferase) | -0.229
PHF6 (PHD finger protein 6) | 0.661
DNMT3B (DNA methyltransferase 3 beta) | -0.382
L3MBTL4 (L3MBTL histone methyl-lysine binding protein 4) | -1.02
BRD2 (bromodomain containing 2) | 1.21
TRIM24 (tripartite motif containing 24) | 0.189
KDM5C (lysine demethylase 5C) | -0.068
KDM3A (lysine demethylase 3A) | 0.853
DPF2 (double PHD fingers 2) | 2.29
SIRT1 (sirtuin 1) | -0.291
CDYL2 (chromodomain Y like 2) | 0.529
DPF1 (double PHD fingers 1) | 1.56
HSPBAP1 (HSPB1 associated protein 1) | -0.731
HIF1AN (hypoxia inducible factor 1 subunit alpha inhibitor) | -0.307
OGA (O-GlcNAcase) | -1.09
LIN9 (lin-9 DREAM MuvB core complex component) | -1.28
MBD3L1 (methyl-CpG binding domain protein 3 like 1) | -0.226
KDM1A (lysine demethylase 1A) | 0.687
PRDM4 (PR/SET domain 4) | 0.135
MTA2 (metastasis associated 1 family member 2) | -2.5
MORF4L1 (mortality factor 4 like 1) | -0.00773
MDC1 (mediator of DNA damage checkpoint 1) | 0.0903
HDAC10 (histone deacetylase 10) | 0.283
LBR (lamin B receptor) | 0.407
PWWP2A (PWWP domain containing 2A) | -0.198
SETD7 (SET domain containing 7, histone lysine methyltransferase) | 0.0378
KDM7A (lysine demethylase 7A) | 1.89
PLA2G4B (phospholipase A2 group IVB) | -0.653
DNMT3A (DNA methyltransferase 3 alpha) | -1.5
BRDT (bromodomain testis associated) | -1.86
